These are yes or no findings as the source states them, for the method shown. Binding seen in cells or lysates may run through a third protein. These calls come from enrichment with a bait or labelling near it, and not all partners need be listed.

To fix the notation:
B1: PA1899, endogenous (protein, UniProt Q9I2J9 1-162)
chain: MREYQRLKGFTDNLELRRRNRATVEHYMRMKGAERLQRHSLFVEDGCAGNWTTESGEPLVFRGHESLRRLAEWLERCFPDWEWHNVRIFETEDPNHFWVECDGRGKALVPGYPQGYCENHYIHSFELENGRIKRNREFMNPMQKLRALGIAVPQIKRDGIPT
B2: PA0937, endogenous (protein, UniProt Q9I521 1-179)
chain: MSMSLRDQLLKAGLVNEKQAKQATKQKQKQQRLEHKNQVDKDDSQRQAAEQAKAEKLARDQELNRQQQEKAEKKAKAAQIKQLIEGTRLPKLESDDYYNFVDAKKVKRIAVNDLIRDKLSRGSLAIVSYDGRYEIVPRDAAVKIQERDPRRVVLLNVQSQEPDEDDPYKDYVVPDDLMW
B3: PA3309, endogenous (protein, UniProt Q9HYT5 1-151)
chain: MYDRILVAVDGSPVSDRALEEAIKLAGLSGGKLRVITIVDSPLRHLPDYAVYYNPEPLREAALKAADDVLAKAREKVEASNVEGATFDRVCQERASEEIAERIELEAQASDADVVVMGTHGRRGMRRLMLGSVAEGLIRVASRPVLLVRDK
B4: PA3196, endogenous (protein, UniProt Q9HZ44 1-176)
chain: MKETLNELITLISTGCMGAEEIRRIADEAAQAYADPAGFLAANPDINYDDSFPIPLGEWVVVGSLPDIVLFQADTYAELFARIVASFGKDVAFNIKPKQLLKTEPLVALNRIQVQLSSMYPEKGGYVLVDFSEPLDDELQAVLVYTQDLPRVMALCVEAGIYAAPAYESLRDAEAE

The target of the assay is PipA-GFP (P. aeruginosa). Nature of the assay: affinity purification with mass spectrometry; CoIP-seq: PipA-GFP expressed in bacteria, PipA-partner protein complexes enriched using GFP-affinity beads, candidates identified by mass spectrometry.
Regarding B1, the binding entry is reported as “binds”. The value for B2 was “binds”. In the case of B3, the binding result was “binds”. In the case of B4, the binding entry is “binds”.

For the origin of these results see PMC13539228.
